# Source: the supplement of paper PMC11438910
# Some of the results follow. Most of these values are background signal.
# B1: 4-80.2 (protein)
# chain 1: QVQLQESGPGLVKPSETLSLTCAVSGDSFSSYWWSWIRQPPGKGLEWIGEINGNVGSTNYNPSLKSRVTISKDASKNQFSLKLSSVTAADTAVYYCARYKEYWGQGVLVTVSS
# chain 2: DVVMTQSPLSLPITPGQPASISCRSSQSLVHSNGNTYLSWYQQKPGQPPRRLIYEVSNRDSGVPDRFSGSGAGTDFTLKISRVEAEDVGVYYCGQGTHLPYSFGQGTKVEIK
# Experiments:
# Test in all cases: fluorescence intensity of antibody binding to polysaccharide-coupled beads; higher = stronger binding
# [1] = molecular target: pneumococcal polysaccharide Pn15B
# [2] = molecular target: pneumococcal polysaccharide Pn15C
# [3] = molecular target: pneumococcal polysaccharide Pn15F
# [4] = molecular target: pneumococcal polysaccharide Pn16A
# [5] = molecular target: pneumococcal polysaccharide Pn16F
# [6] = molecular target: pneumococcal polysaccharide Pn17A
# [7] = molecular target: pneumococcal polysaccharide Pn17F
# [8] = molecular target: pneumococcal polysaccharide Pn18A
# [9] = molecular target: pneumococcal polysaccharide Pn18B
# [10] = molecular target: pneumococcal polysaccharide Pn18C
# [11] = molecular target: pneumococcal polysaccharide Pn18F
# [12] = molecular target: pneumococcal polysaccharide Pn19A
# [13] = molecular target: pneumococcal polysaccharide Pn19B
# [14] = molecular target: pneumococcal polysaccharide Pn19C
# [15] = molecular target: pneumococcal polysaccharide Pn19F
# [16] = molecular target: pneumococcal polysaccharide Pn2
# [17] = molecular target: pneumococcal polysaccharide Pn20A
# [18] = molecular target: pneumococcal polysaccharide Pn20B
# [19] = molecular target: pneumococcal polysaccharide Pn21
# [20] = molecular target: pneumococcal polysaccharide Pn22A
# [21] = molecular target: pneumococcal polysaccharide Pn22F
# [22] = molecular target: pneumococcal polysaccharide Pn23A
# [23] = molecular target: pneumococcal polysaccharide Pn23B
# [24] = molecular target: pneumococcal polysaccharide Pn23F
# [25] = antibody concentration 2337.65 ng/mL
# [26] = antibody concentration 12500 ng/mL
# [27] = antibody concentration 0.1 ng/mL
# [28] = antibody concentration 0.534724 ng/mL
# [29] = antibody concentration 2.8593 ng/mL
# [30] = antibody concentration 15.2894 ng/mL
# [31] = antibody concentration 81.7561 ng/mL
# [32] = antibody concentration 437.17 ng/mL
binder,measurement,setting,value
B1,fluorescence intensity,[1]; [25],21.2 MFI
same,fluorescence intensity,[1]; [26],28 MFI
same,fluorescence intensity,[2]; [27],17 MFI
same,fluorescence intensity,[2]; [28],16.5 MFI
same,fluorescence intensity,[2]; [29],16.2 MFI
same,fluorescence intensity,[2]; [30],15 MFI
same,fluorescence intensity,[2]; [31],16.5 MFI
same,fluorescence intensity,[2]; [32],19 MFI
same,fluorescence intensity,[2]; [25],19.5 MFI
same,fluorescence intensity,[2]; [26],20 MFI
same,fluorescence intensity,[3]; [27],17.2 MFI
same,fluorescence intensity,[3]; [28],17.5 MFI
same,fluorescence intensity,[3]; [29],18.5 MFI
same,fluorescence intensity,[3]; [30],17.2 MFI
same,fluorescence intensity,[3]; [31],19.5 MFI
same,fluorescence intensity,[3]; [32],17.5 MFI
same,fluorescence intensity,[3]; [25],18.5 MFI
same,fluorescence intensity,[3]; [26],24 MFI
same,fluorescence intensity,[4]; [27],16.8 MFI
same,fluorescence intensity,[4]; [28],14.5 MFI
same,fluorescence intensity,[4]; [29],14 MFI
same,fluorescence intensity,[4]; [30],12.5 MFI
same,fluorescence intensity,[4]; [31],15.8 MFI
same,fluorescence intensity,[4]; [32],15 MFI
same,fluorescence intensity,[4]; [25],16.5 MFI
same,fluorescence intensity,[4]; [26],21.2 MFI
same,fluorescence intensity,[5]; [27],23.5 MFI
same,fluorescence intensity,[5]; [28],24 MFI
same,fluorescence intensity,[5]; [29],26.5 MFI
same,fluorescence intensity,[5]; [30],26.2 MFI
same,fluorescence intensity,[5]; [31],25 MFI
same,fluorescence intensity,[5]; [32],26.8 MFI
same,fluorescence intensity,[5]; [25],28 MFI
same,fluorescence intensity,[5]; [26],34 MFI
same,fluorescence intensity,[6]; [27],20.2 MFI
same,fluorescence intensity,[6]; [28],22.5 MFI
same,fluorescence intensity,[6]; [29],20.5 MFI
same,fluorescence intensity,[6]; [30],20.2 MFI
same,fluorescence intensity,[6]; [31],21.5 MFI
same,fluorescence intensity,[6]; [32],21 MFI
same,fluorescence intensity,[6]; [25],22 MFI
same,fluorescence intensity,[6]; [26],24 MFI
same,fluorescence intensity,[7]; [27],29.8 MFI
same,fluorescence intensity,[7]; [28],25 MFI
same,fluorescence intensity,[7]; [29],27.2 MFI
same,fluorescence intensity,[7]; [30],27 MFI
same,fluorescence intensity,[7]; [31],27 MFI
same,fluorescence intensity,[7]; [32],25.8 MFI
same,fluorescence intensity,[7]; [25],28 MFI
same,fluorescence intensity,[7]; [26],30.2 MFI
same,fluorescence intensity,[8]; [27],26.2 MFI
same,fluorescence intensity,[8]; [28],24 MFI
same,fluorescence intensity,[8]; [29],23.5 MFI
same,fluorescence intensity,[8]; [30],24.5 MFI
same,fluorescence intensity,[8]; [31],23.5 MFI
same,fluorescence intensity,[8]; [32],24.2 MFI
same,fluorescence intensity,[8]; [25],26.2 MFI
same,fluorescence intensity,[8]; [26],29.5 MFI
same,fluorescence intensity,[9]; [27],31.2 MFI
same,fluorescence intensity,[9]; [28],30.5 MFI
same,fluorescence intensity,[9]; [29],31 MFI
same,fluorescence intensity,[9]; [30],31.5 MFI
same,fluorescence intensity,[9]; [31],30 MFI
same,fluorescence intensity,[9]; [32],30.5 MFI
same,fluorescence intensity,[9]; [25],32.8 MFI
same,fluorescence intensity,[9]; [26],38.5 MFI
same,fluorescence intensity,[10]; [27],20 MFI
same,fluorescence intensity,[10]; [28],18.5 MFI
same,fluorescence intensity,[10]; [29],18.5 MFI
same,fluorescence intensity,[10]; [30],20 MFI
same,fluorescence intensity,[10]; [31],18.5 MFI
same,fluorescence intensity,[10]; [32],19.2 MFI
same,fluorescence intensity,[10]; [25],20 MFI
same,fluorescence intensity,[10]; [26],20.5 MFI
same,fluorescence intensity,[11]; [27],22 MFI
same,fluorescence intensity,[11]; [28],24.5 MFI
same,fluorescence intensity,[11]; [29],23.8 MFI
same,fluorescence intensity,[11]; [30],22.5 MFI
same,fluorescence intensity,[11]; [31],24 MFI
same,fluorescence intensity,[11]; [32],23.2 MFI
same,fluorescence intensity,[11]; [25],27 MFI
same,fluorescence intensity,[11]; [26],33.5 MFI
same,fluorescence intensity,[12]; [27],19 MFI
same,fluorescence intensity,[12]; [28],20 MFI
same,fluorescence intensity,[12]; [29],18.2 MFI
same,fluorescence intensity,[12]; [30],19 MFI
same,fluorescence intensity,[12]; [31],18.5 MFI
same,fluorescence intensity,[12]; [32],19 MFI
same,fluorescence intensity,[12]; [25],19.5 MFI
same,fluorescence intensity,[12]; [26],23 MFI
same,fluorescence intensity,[13]; [27],32 MFI
same,fluorescence intensity,[13]; [28],28.5 MFI
same,fluorescence intensity,[13]; [29],26.5 MFI
same,fluorescence intensity,[13]; [30],31.8 MFI
same,fluorescence intensity,[13]; [31],28.5 MFI
same,fluorescence intensity,[13]; [32],26.5 MFI
same,fluorescence intensity,[13]; [25],34.5 MFI
same,fluorescence intensity,[13]; [26],70.5 MFI
same,fluorescence intensity,[14]; [27],26.5 MFI
same,fluorescence intensity,[14]; [28],26 MFI
same,fluorescence intensity,[14]; [29],24.5 MFI
same,fluorescence intensity,[14]; [30],27 MFI
same,fluorescence intensity,[14]; [31],25.5 MFI
same,fluorescence intensity,[14]; [32],27.2 MFI
same,fluorescence intensity,[14]; [25],29 MFI
same,fluorescence intensity,[14]; [26],55 MFI
same,fluorescence intensity,[15]; [27],26 MFI
same,fluorescence intensity,[15]; [28],28 MFI
same,fluorescence intensity,[15]; [29],25.8 MFI
same,fluorescence intensity,[15]; [30],28 MFI
same,fluorescence intensity,[15]; [31],27.5 MFI
same,fluorescence intensity,[15]; [32],26 MFI
same,fluorescence intensity,[15]; [25],28.8 MFI
same,fluorescence intensity,[15]; [26],33 MFI
same,fluorescence intensity,[16]; [27],19 MFI
same,fluorescence intensity,[16]; [28],20.5 MFI
same,fluorescence intensity,[16]; [29],19 MFI
same,fluorescence intensity,[16]; [30],19.5 MFI
same,fluorescence intensity,[16]; [31],19.5 MFI
same,fluorescence intensity,[16]; [32],21 MFI
same,fluorescence intensity,[16]; [25],23.5 MFI
same,fluorescence intensity,[16]; [26],28 MFI
same,fluorescence intensity,[17]; [27],24.8 MFI
same,fluorescence intensity,[17]; [28],23 MFI
same,fluorescence intensity,[17]; [29],22.5 MFI
same,fluorescence intensity,[17]; [30],24 MFI
same,fluorescence intensity,[17]; [31],23.5 MFI
same,fluorescence intensity,[17]; [32],21.5 MFI
same,fluorescence intensity,[17]; [25],27.5 MFI
same,fluorescence intensity,[17]; [26],53.5 MFI
same,fluorescence intensity,[18]; [27],23.8 MFI
same,fluorescence intensity,[18]; [28],24.5 MFI
same,fluorescence intensity,[18]; [29],24.5 MFI
same,fluorescence intensity,[18]; [30],25.5 MFI
same,fluorescence intensity,[18]; [31],22.5 MFI
same,fluorescence intensity,[18]; [32],25 MFI
same,fluorescence intensity,[18]; [25],25 MFI
same,fluorescence intensity,[18]; [26],30 MFI
same,fluorescence intensity,[19]; [27],19.5 MFI
same,fluorescence intensity,[19]; [28],20 MFI
same,fluorescence intensity,[19]; [29],18.5 MFI
same,fluorescence intensity,[19]; [30],19 MFI
same,fluorescence intensity,[19]; [31],20 MFI
same,fluorescence intensity,[19]; [32],18.5 MFI
same,fluorescence intensity,[19]; [25],21.8 MFI
same,fluorescence intensity,[19]; [26],16.2 MFI
same,fluorescence intensity,[20]; [27],22 MFI
same,fluorescence intensity,[20]; [28],23.5 MFI
same,fluorescence intensity,[20]; [29],19 MFI
same,fluorescence intensity,[20]; [30],23 MFI
same,fluorescence intensity,[20]; [31],20.5 MFI
same,fluorescence intensity,[20]; [32],22 MFI
same,fluorescence intensity,[20]; [25],25 MFI
same,fluorescence intensity,[20]; [26],32.8 MFI
same,fluorescence intensity,[21]; [27],32.5 MFI
same,fluorescence intensity,[21]; [28],32.5 MFI
same,fluorescence intensity,[21]; [29],31 MFI
same,fluorescence intensity,[21]; [30],33 MFI
same,fluorescence intensity,[21]; [31],33.2 MFI
same,fluorescence intensity,[21]; [32],30 MFI
same,fluorescence intensity,[21]; [25],33.5 MFI
same,fluorescence intensity,[21]; [26],36 MFI
same,fluorescence intensity,[22]; [27],24.8 MFI
same,fluorescence intensity,[22]; [28],27.5 MFI
same,fluorescence intensity,[22]; [29],29 MFI
same,fluorescence intensity,[22]; [30],25.5 MFI
same,fluorescence intensity,[22]; [31],27 MFI
same,fluorescence intensity,[22]; [32],27.2 MFI
same,fluorescence intensity,[22]; [25],36.5 MFI
same,fluorescence intensity,[22]; [26],45.5 MFI
same,fluorescence intensity,[23]; [27],30 MFI
same,fluorescence intensity,[23]; [28],30.5 MFI
same,fluorescence intensity,[23]; [29],31.2 MFI
same,fluorescence intensity,[23]; [30],30 MFI
same,fluorescence intensity,[23]; [31],31 MFI
same,fluorescence intensity,[23]; [32],34.8 MFI
same,fluorescence intensity,[23]; [25],32.2 MFI
same,fluorescence intensity,[23]; [26],35.2 MFI
same,fluorescence intensity,[24]; [27],18.8 MFI
same,fluorescence intensity,[24]; [28],17.5 MFI

# Looked up one by one from the list above (5):
binder,measurement,setting,value
B1,fluorescence intensity,[14]; [27],26.5 MFI
same,fluorescence intensity,[9]; [27],31.2 MFI
same,fluorescence intensity,[22]; [29],29 MFI
same,fluorescence intensity,[11]; [27],22 MFI
same,fluorescence intensity,[19]; [32],18.5 MFI

# An excerpt from further up, for reference:
binder,measurement,setting,value
B1,fluorescence intensity,[23]; [25],32.2 MFI
same,fluorescence intensity,[23]; [26],35.2 MFI
same,fluorescence intensity,[24]; [27],18.8 MFI
same,fluorescence intensity,[24]; [28],17.5 MFI

# Four entries from above in another layout:
binder | measurement | setting | value
B1 | fluorescence intensity | [4]; [29] | 14 MFI
same | fluorescence intensity | [10]; [30] | 20 MFI
same | fluorescence intensity | [20]; [32] | 22 MFI
same | fluorescence intensity | [21]; [28] | 32.5 MFI
